US20030229003, “Use of transcription factors for treating inflammation and other diseases” (published 2003)

Chains of the proteins cited; added tags and fusions are not shown. A line that says so, or that is headed by a name, gives the form on record, which may keep a tag or linker.
NF-kB p50/p65 (Homo sapiens), one chain, as listed by the source, chain 2 of 2: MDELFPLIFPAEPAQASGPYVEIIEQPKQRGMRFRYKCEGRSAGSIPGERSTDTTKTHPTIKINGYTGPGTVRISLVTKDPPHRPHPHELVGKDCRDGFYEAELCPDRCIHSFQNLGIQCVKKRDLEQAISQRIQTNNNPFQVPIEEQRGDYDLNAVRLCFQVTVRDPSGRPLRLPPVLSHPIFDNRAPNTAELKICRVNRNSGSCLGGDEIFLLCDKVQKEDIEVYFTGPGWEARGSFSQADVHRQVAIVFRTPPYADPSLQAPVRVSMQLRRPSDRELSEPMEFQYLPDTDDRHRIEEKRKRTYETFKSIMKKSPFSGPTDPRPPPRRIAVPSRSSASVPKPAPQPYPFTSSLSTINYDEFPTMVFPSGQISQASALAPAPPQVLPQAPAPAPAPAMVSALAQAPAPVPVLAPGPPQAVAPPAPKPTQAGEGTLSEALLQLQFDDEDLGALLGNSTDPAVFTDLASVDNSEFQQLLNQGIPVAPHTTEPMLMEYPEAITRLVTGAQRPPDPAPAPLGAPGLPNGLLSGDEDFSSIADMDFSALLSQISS
NF-kB p50/p65 (Homo sapiens), one chain, as listed by the source, chain 1 of 2: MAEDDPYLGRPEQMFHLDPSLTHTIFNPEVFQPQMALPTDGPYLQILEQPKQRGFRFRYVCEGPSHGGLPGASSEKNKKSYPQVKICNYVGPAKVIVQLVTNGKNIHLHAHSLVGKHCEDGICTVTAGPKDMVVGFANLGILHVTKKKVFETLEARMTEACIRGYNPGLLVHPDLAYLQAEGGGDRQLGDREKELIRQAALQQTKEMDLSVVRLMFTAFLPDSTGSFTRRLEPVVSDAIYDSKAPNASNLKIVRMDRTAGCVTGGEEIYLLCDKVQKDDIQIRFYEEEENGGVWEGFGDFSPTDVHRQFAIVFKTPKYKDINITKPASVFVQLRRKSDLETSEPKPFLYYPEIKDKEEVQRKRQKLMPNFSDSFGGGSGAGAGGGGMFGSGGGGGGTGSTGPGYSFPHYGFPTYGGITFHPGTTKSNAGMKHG

Assays:
[1] = test system: NF-kB p50/p65 (Homo sapiens); assay: EMSA; settings: protein in an extract, label: 32P
[2] = test system: NF-kB p50/p65 (Homo sapiens); assay: competition with a labelled probe; settings: unlabeled mutant competitor 1-100 ng; specificity stated as confirmed, non-competition implied; protein in an extract; variant of ESE-1 promoter NF-kB site wild type
[3] = target: T1, ESE-1 (ELF3) (Homo sapiens) (UniProt P78545); assay: EMSA; settings: weak complex; data not shown; protein translated in vitro; protein details: pCI/ESE-1, TNT rabbit reticulocyte lysate; label: 32P
T1 sequence (looked up, limits assumed): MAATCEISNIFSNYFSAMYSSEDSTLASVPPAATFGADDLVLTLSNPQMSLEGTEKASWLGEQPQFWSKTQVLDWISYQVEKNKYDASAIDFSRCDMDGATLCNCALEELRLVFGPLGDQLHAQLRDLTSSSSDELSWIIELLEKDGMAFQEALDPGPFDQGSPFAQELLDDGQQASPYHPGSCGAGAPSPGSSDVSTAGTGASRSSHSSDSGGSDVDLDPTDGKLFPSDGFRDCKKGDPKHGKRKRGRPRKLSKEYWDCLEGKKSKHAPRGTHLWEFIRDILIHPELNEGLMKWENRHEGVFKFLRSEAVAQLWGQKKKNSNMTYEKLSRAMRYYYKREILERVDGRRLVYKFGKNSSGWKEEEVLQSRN

## AGGCCAGGAAATCCCCTCCATC (double strand) [ESE-1 promoter NF-kB site wild type]
[1]; IL-1beta-inducible complex, supershifted by p50 and p65 antibodies only
  binding result: binds

## AGGCCAGGAAATCGGATCCATC (double strand) [ESE-1 promoter NF-kB site mutant]
[2]
  binding result: no binding

## GAGAGAACCTTCCTTTTTATAA (double strand) [COX-2 promoter Ets site 2]
[3]
  binding result: binds more weakly

## TCGACATGTGGGATTTTCCCATGAC (double strand) [IL-6 promoter NF-kB site]
[1]; complex comigrates with ESE-1/NF-kB complex
  binding result: binds

## TCTCATTTCCGTGGGTAAAAA (double strand) [COX-2 promoter Ets site 5]
[3]
  binding result: binds more weakly

For some assays here: The comparison behind a weaker result is the experiment's own reference, which may not be listed here. For some assays here: Protein sequences can lack the tags named with them. For some assays here: Where cells or extracts were used, other partners may take part. For some assays here: The exact form of at least one protein or probe is not confirmed. For some assays here: No signal at the amounts used counts as a negative.
